Where “and” joins values, the source holds several entries; their conditions need not be identical. Equal entries are not always repeated. Inconclusive results, whose numbers are uncertain, are shown with a selection of clear calls. Potencies beside an inconclusive call are fits to weak or partial responses and may not hold up. Calls of active or inactive are those of the source. The call rests on the fitted dose curve; in most records, active means well fitted cell-killing curve with a large enough effect; inconclusive means small, poorly fitted or top-dose-only effect; inactive means flat fitted curve, though single readings scatter. Numbered stars: 1 amine (or outer) side, 2 acyl side, 3 side chain; on linkers, the order of the positions; unused ones are H or OH. Bridge positions count the residues as written; N and C are the ends. Square brackets hold non-standard residues; d marks the D form. Peptide text beside a SMILES is read from it. I, II: the chains in the order shown. ξ: configuration not given here. Actinocin(9to1) = Cc1c2oc3c(C)ccc(C(=O)[*:1])c3nc-2c(C(=O)[*:2])c(N)c1=O; ξNMeV = CNC(C(=O)O)C(C)C; ξV = CC(C)C(N)C(=O)O; Sar = CNCC(=O)O
Experiment: Identifying Small Molecule Inhibitors of Pancreatic Cancer Stem Cells (SN12C, Adherent) (AID 1259358);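 further: cell survival measured after 48 h of compound exposure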
Settings: viability/growth inhibition; series mostly up to 46.1 µM
Description: Progenitor-like cancer cells, often referred to as cancer stem cells (CSC), are believed to be the drivers of therapeutic resistance and rapid recurrence. CSCs are postulated to reside in specific niches characterized by low oxygen tension, limited nutrient supply, and high redox load. Selectively targeting CSC, alone or in combination with cytotoxic agents, as a means to produce durable remissions is an appealing concept. Modeling these cells in in vitro setting is an important step in finding new therapies and/or targets. Multiple reports highlight that forcing cells in culture into 3-dimensionaly architectures (spheroids) re-establishes key progenitor-like transcriptional signatures. Pancreatic cancer is among the diseases with the most dismal outlook which is driven, largely, by recurance following front-line therapies. […] In hopes of deriving new insight into the targeting of these pancreatic CSCs we examined three established pancreatic cancer cell lines in cytotoxicity assays versus a collection of approved and investigational drugs. Importantly, we screened these lines as traditional monolayer (2D) and spheroid (3D) formats to gain an appreciation of agents with differential activity.
Multicellular tumor spheroids from Panc1, MiaPaCa-2, and the primary low-passage tissue culture line SB.06 were seeded in stem cell media (SCM) in nonadherent 6-well plates coated with hydrogel (Corning Life Sciences, Chelmsford, Mass) and pancreatic spheres generated for 14 days before screening. Cells were seeded into 1536-well solid-bottom white tissue culture treated Greiner Bio One Plates (789173-F) using a MultiDrop Combi (Thermofisher Scientific) dispenser and a small sterile cassette. One column was media alone to be used as a :"no cells" control. The plates were then covered with sterilized stainless steel gasketed lids from Kalypsys. After allowing cells to attach for 4 hours, 23 nL of test compound or control (negative control DMSO and positive control 9.2 uM Bortezomib-final) were added from a 1536-well polypropylene compound source plate to each well using a 1536 head pin tool from Kalypsys. Cells were then incubated for 48 hours at 37C, 95% relative humidity and 5% CO2. After 48 hours, plates were removed from the incubator and 3 uL of CellTiter-Glo (Promega) was added using an Aurora Flying Reagent Dispenser Bioraptor. Plates were incubated at room temperature for 10 minutes prior to reading the luminescence on the Viewlux (PerkinElmer). The relative luciferase units are used to calculate the percent activity using the activity of DMSO in the cells and no cells columns for normalization of no inhibition and full inhibition respectively.
Potency means the concentration at half of the fitted maximal effect.

**Q.** With `COc1cc2nccc(Oc3ccc(NC(=O)NC4CC4)c(Cl)c3)c2cc1C(N)=O` as the molecule, how does the Potency read?
**A.** active: 18.7 µM

**Q.** For `CCC(=C(c1ccccc1)c1ccc(OCCN(C)C)cc1)c1ccccc1`, which Potency is on record?
**A.** inconclusive: 23.5 µM [cytotoxic, single point]

**Q.** Which Potency does the source give for `CCC[C@H](NC(=O)C(C#N)=Cc1cccc(Br)n1)c1ccccc1` here?
**A.** inconclusive: 26.4 µM [cytotoxic, single point]

**Q.** Which Potency does the source give for `Cc1cc(Nc2cc(N3CCN(C)CC3)nc(Sc3ccc(NC(=O)C4CC4)cc3)n2)n[nH]1` here?
**A.** active: 20.9 µM

**Q.** For `O=C(O)c1ccc2cc(-c3ccc(O)c(C45CC6CC(CC(C6)C4)C5)c3)ccc2c1`, which Potency is on record?
**A.** active: 2.64 µM

**Q.** Which Potency does the source give for `COC(=O)C1=C(C)NC(C)=C(C(=O)OCCCN2CCC(c3ccccc3)(c3ccccc3)CC2)[C@H]1c1cccc([N+](=O)[O-])c1` here?
**A.** inconclusive: 33.2 µM [cytotoxic, single point]

**Q.** Which Potency does the source give for `CNC(=O)c1cc(Oc2ccc(NC(=O)Nc3cc(C(C)(C)C)nn3-c3ccc4ncccc4c3)c(F)c2)ccn1` here?
**A.** inconclusive: 18.7 µM [cytotoxic, partial curve]

**Q.** With `C[C@@]12O[C@@H](C[C@]1(O)CO)n1c3ccccc3c3c4c(c5c6ccccc6n2c5c31)CNC4=O` as the molecule, how does the Potency read?
**A.** inconclusive: 2.64 µM [cytotoxic, full curve, poor fit]

**Q.** With `CN([C@@H](Cc1ccc(OS(=O)(=O)c2cccc3cnccc23)cc1)C(=O)N1CCN(c2ccccc2)CC1)S(=O)(=O)c1cccc2cnccc12` as the molecule, how does the Potency read?
**A.** inactive

**Q.** Which Potency does the source give for `CC[C@H](Nc1ncnc2nc[nH]c12)c1nc2cccc(F)c2c(=O)n1-c1ccccc1` here?
**A.** inconclusive: 8.33 µM [cytotoxic, partial curve, poor fit]

**Q.** Which Potency does the source give for `C=CC(=O)N1CCC[C@@H](n2nc(-c3ccc(Oc4ccccc4)cc3)c3c(N)ncnc32)C1` here?
**A.** inconclusive: 30.3 µM [cytotoxic, partial curve]

**Q.** Which Potency does the source give for `C=C1C(=CC=C2CCC[C@]3(C)[C@@H]([C@H](C)C=C[C@H](C)C(C)C)CC[C@@H]23)C[C@@H](O)C[C@@H]1O` here?
**A.** inconclusive: 20.9 µM [cytotoxic, partial curve, poor fit]

**Q.** With `COc1ccc(C2=N[C@H](c3ccc(Cl)cc3)[C@H](c3ccc(Cl)cc3)N2C(=O)N2CCNC(=O)C2)c(OC(C)C)c1` as the molecule, how does the Potency read?
**A.** inconclusive: 20.9 µM [cytotoxic, partial curve, poor fit]

**Q.** For `CN1CCC(CNc2ccc3ncc(-c4cccc(OC(F)(F)F)c4)n3n2)CC1`, which Potency is on record?
**A.** active: 20.9 µM

**Q.** Which Potency does the source give for `O=C1Nc2ccc(Cl)cc2[C@@](C#CC2CC2)(C(F)(F)F)O1` here?
**A.** inconclusive: 42.9 µM [cytotoxic, single point]

**Q.** With `Nc1cc(C(F)(F)F)c(-c2cc(N3CCOCC3)nc(N3CCOCC3)n2)cn1` as the molecule, how does the Potency read?
**A.** inconclusive: 1.87 µM [cytotoxic, full curve]

**Q.** With `CN(C)CC=CC(=O)Nc1cc2c(Nc3ccc(F)c(Cl)c3)ncnc2cc1O[C@H]1CCOC1` as the molecule, how does the Potency read?
**A.** inconclusive: 20.9 µM [cytotoxic, partial curve]

**Q.** With `CCN(CC)CCn1c(=O)c(Cc2ccc(OC)cc2)nc2ccccc21` as the molecule, how does the Potency read?
**A.** inactive

**Q.** With `CN(C)CCCN=c1c2ccccc2n(C)c2[nH]c(=O)n(C)c(=O)c12` as the molecule, how does the Potency read?
**A.** active: 20.9 µM

**Q.** Which Potency does the source give for `CC#C[C@]1(O)CC[C@H]2[C@@H]3CCC4=CC(=O)CCC4=C3[C@H](c3ccc(N(C)C)cc3)C[C@@]21C` here?
**A.** inconclusive: 37.2 µM [cytotoxic, partial curve, poor fit]

**Q.** With `Cc1c(CCOc2ccc(C(=O)O)cc2)c2cc(Cl)ccc2n1C(c1ccccc1)c1ccccc1` as the molecule, how does the Potency read?
**A.** inactive

**Q.** For `C[C@@H](Oc1cc(-n2cnc3ccc(CN4CCN(C)CC4)cc32)sc1C(N)=O)c1ccccc1C(F)(F)F`, which Potency is on record?
**A.** inconclusive: 0.118 µM [cytotoxic, partial curve, poor fit]

**Q.** Which Potency does the source give for `CC(=O)O[C@@]12CO[C@@H]1C[C@H](O)[C@@]1(C)C(=O)[C@H](O)C3=C(C)[C@@H](OC(=O)[C@H](O)[C@@H](NC(=O)OC(C)(C)C)c4ccccc4)C[C@@](O)([C@@H](OC(=O)c4ccccc4)[C@H]21)C3(C)C` here?
**A.** inactive

**Q.** For `CCOc1cc2ncc(C#N)c(Nc3ccc(OCc4ccccn4)c(Cl)c3)c2cc1NC(=O)/C=C/CN(C)C`, which Potency is on record?
**A.** active: 0.418 µM

**Q.** Which Potency does the source give for `CC[C@@H](C(=O)O)C1CC[C@H](C)C([C@@H](C)[C@H](O)[C@H](C)C(=O)[C@H](CC)C2O[C@]3(C=C[C@@H](O)[C@]4(CC[C@@](C)(C5CC[C@](O)(CC)[C@H](C)O5)O4)O3)[C@H](C)C[C@@H]2C)O1` (stereo not given in full) here?
**A.** inconclusive: 13.2 µM [cytotoxic, partial curve]

**Q.** For `Cn1c(Nc2ccc(C(F)(F)F)cc2)nc2cc(Oc3ccnc(-c4ncc(C(F)(F)F)[nH]4)c3)ccc21`, which Potency is on record?
**A.** inconclusive: 0.209 µM [cytotoxic, full curve]

**Q.** Which Potency does the source give for `S=C(NCc1ccc2c(c1)OCO2)N1CCN(c2ncnc3c2oc2ccccc23)CC1` here?
**A.** active: 13.2 µM

**Q.** For `C=CCc1cccc(/C=N/NC(=O)CN2CCN(Cc3ccccc3)CC2)c1O`, which Potency is on record?
**A.** active: 10.5 µM

**Q.** For `CC(C)(C)c1cnc(CSc2cnc(NC(=O)C3CCNCC3)s2)o1`, which Potency is on record?
**A.** inconclusive: 0.418 µM [cytotoxic, full curve]

**Q.** For `CCC1(Cc2ccc(N)cc2)CCC(=O)NC1=O` (stereo not given), which Potency is on record?
**A.** inactive

**Q.** Which Potency does the source give for `Cc1cc(-c2nnc3n2CCCCC3)c(C)n1-c1ccc(F)cc1` here?
**A.** inconclusive: 11.8 µM [cytotoxic, partial curve, poor fit]

**Q.** For `C/C(=C\C(=O)Nc1ccccc1C(=O)O)c1ccc2ccccc2c1`, which Potency is on record?
**A.** inconclusive: 20.9 µM [cytotoxic, partial curve, poor fit]

**Q.** Which Potency does the source give for `Cc1c2oc3c(C)ccc(C(=O)N[C@@H]4C(=O)NC(C(C)C)C(=O)N5CCC[C@H]5C(=O)N(C)CC(=O)N(C)C(C(C)C)C(=O)O[C@@H]4C)c3nc-2c(C(=O)N[C@@H]2C(=O)NC(C(C)C)C(=O)N3CCC[C@H]3C(=O)N(C)CC(=O)N(C)C(C(C)C)C(=O)O[C@@H]2C)c(N)c1=O` (stereo not given in full) (I: T[ξV]P[Sar][ξNMeV] / II: T[ξV]P[Sar][ξNMeV]; ester I:1-I:C, II:1-II:C; linker I:N-II:N via Actinocin(9to1)) here?
**A.** inconclusive: 0.0418 µM [cytotoxic, full curve, poor fit]

**Q.** For `N#Cc1ccc(COC[C@H]2O[C@@H](n3c(NCc4ccc(Cl)c(Cl)c4)nc4c(N)ncnc43)[C@@H](O)[C@@H]2O)cc1`, which Potency is on record?
**A.** inconclusive: 29.6 µM [cytotoxic, partial curve, poor fit]

**Q.** For `CC(C)C[C@H](NC(=O)CNC(=O)c1cc(Cl)ccc1Cl)B(O)O`, which Potency is on record?
**A.** active: 0.132 µM

**Q.** Which Potency does the source give for `COc1ccc(C=Cc2cc(OC)c(OC)c(OC)c2)cc1O` here?
**A.** active: 0.0026 µM

**Q.** With `O=C(NCCCNc1nc(Nc2cccc(NC(=O)N3CCCC3)c2)ncc1I)c1cccs1` as the molecule, how does the Potency read?
**A.** inconclusive: 18.7 µM [cytotoxic, partial curve] and inconclusive: 23.5 µM [cytotoxic, partial curve]

**Q.** Which Potency does the source give for `CC(NC(=O)Cc1cc(F)cc(F)c1)C(=O)NC(C(=O)OC(C)(C)C)c1ccccc1` (stereo not given) here?
**A.** inactive

**Q.** With `COc1cc2nccc(Oc3ccc(NC(=O)C4(C(=O)Nc5ccc(F)cc5)CC4)cc3)c2cc1OC` as the molecule, how does the Potency read?
**A.** inconclusive: 20.9 µM [cytotoxic, partial curve]

**Q.** Which Potency does the source give for `NC(=O)Nc1cc(-c2ccc(CN3CCOCC3)c(F)c2)sc1C(=O)N[C@H]1CCCNC1` here?
**A.** active: 0.833 µM
